Experimental data as given in PubChem BioAssay AID2685 (National Center for Advancing Translational Sciences (NCATS), 2010).
The list shows a part of the results. Further columns of the screen follow, without active or inactive calls. Compounds called inactive in the main read-out are mostly missing here. Words in brackets tell the shape of the fitted curve; partial curves, single points and poor fits give uncertain potencies.

Test: qHTS Assay for Lipid Storage Modulators in Drosophila S3 Cells;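 for cell number change: cells counted by Cell Tracker Red CMTPX staining in the red channel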
Settings: BODIPY lipid droplet fluorescence, 18-24 h; for cell number change: measured here: cell count max response, cells fed with added oleic acid
In short: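 Drosophila S3 cells loaded with oleic acid (400 uM, as added) and compounds at several concentrations; lipid droplets imaged by 488-nm laser-scanning cytometry, 500–530 nm intensity and object ratio to cell channel. Percent activity normalized to 20 uM Triacsin C.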

[1] = measured here: lipid fluorescence (Fed channel) AC50, cells fed with added oleic acid
[2] = measured here: cell number channel AC50, cells fed with added oleic acid

CCOc1ccc(C(=O)NCCn2cc(SCC(=O)Nc3cc(C)on3)c3ccccc32)cc1
cell number change: -25.4% | AC50 [1]: 2.91 µM [falling, full curve, poor fit]

O=S(=O)(NCC1CCCO1)c1ccc(S(=O)(=O)N(Cc2ccccn2)C2CC2)cc1 (stereo not drawn)
cell number change: -5.62% | AC50 [2]: 6.51 µM [rising, single point] | AC50 [1]: 1.64 µM [falling, partial curve, poor fit]

O=C(OCC#CCSc1nc2ccccc2s1)c1ccco1
cell number change: 2.8% | AC50 [1]: 29.1 µM [rising, single point]

CCP(=O)(CC)c1cccc(N)c1
cell number change: -21.9% | AC50 [2]: 1.64 µM [falling, full curve, poor fit] | AC50 [1]: 1.46 µM [falling, full curve, poor fit]

Cc1ccc(CNC(=O)CCc2ccc(S(=O)(=O)NC3CCCCC3)cc2)cc1
cell number change: -13.9% | AC50 [1]: 6.51 µM [rising, single point]

CCN(C(=O)COC(=O)c1cc(=O)[nH]c2ccccc12)C1CCS(=O)(=O)C1 (stereo not drawn)
cell number change: -3.59%

CC1(C)CC(=O)c2sc(NS(=O)(=O)c3ccc(Cl)cc3)nc2C1
cell number change: 0.84% | AC50 [1]: 29.1 µM [rising, partial curve]

CCOc1ccc(C(=O)NCCCN(CC)CC)cc1
cell number change: -2.44% | AC50 [1]: 0.103 µM [falling, full curve, poor fit]

O=C(COC(=O)Cc1ccsc1)NCC1CCCCC1
cell number change: -41.1% | AC50 [2]: 16.4 µM [falling, partial curve] | AC50 [1]: 1.84 µM [falling, partial curve]

O=C(NCc1ccc(Cl)cc1)C(=O)NCC1OCCN1S(=O)(=O)c1cccs1 (stereo not drawn)
cell number change: 24.8% | AC50 [1]: 16.4 µM [rising, partial curve, poor fit]

CC(Sc1nnc(-c2cccnc2)n1C)C(=O)N1CCOCC1 (stereo not drawn)
AC50 [2]: 0.13 µM [falling, full curve, poor fit] | AC50 [1]: 0.092 µM [falling, full curve, poor fit]

CC(C)c1ccc(N(C(=O)c2csnn2)C(C(=O)NC2CCCC2)c2cccnc2)cc1 (stereo not drawn)
cell number change: 33.6% | AC50 [2]: 0.206 µM [rising, full curve, poor fit]

c1ccc(C2CC(c3ccccc3)C(c3ccccc3)N2)cc1 (stereo not drawn)
cell number change: 17.3% | AC50 [1]: 25.9 µM [rising, partial curve]

O=C1CC(NS(=O)(=O)c2cccnc2)CN1c1ccc(F)cc1 (stereo not drawn)
AC50 [2]: 2.31 µM [rising, partial curve] | AC50 [1]: 2.91 µM [rising, partial curve]

C/C(=N\O)C(=O)OC1CC(C)CCC1C(C)C (stereo not drawn)
cell number change: -39.3% | AC50 [2]: 29.1 µM [falling, single point] | AC50 [1]: 1.3 µM [falling, full curve]

COC(=O)c1sccc1NC(=O)CC1NCCNC1=O (stereo not drawn)
cell number change: -10.1%

CC(C)(C)SCCNC(=O)CN1C(=O)c2cccc3cccc1c23
cell number change: -33.6% | AC50 [2]: 7.31 µM [falling, partial curve] | AC50 [1]: 7.31 µM [falling, partial curve]

O=C1CN(C(=O)c2ccc(Br)o2)C(c2ccccc2)c2cc(F)ccc2N1 (stereo not drawn)
cell number change: 18.1%

COc1ccc(-c2nnc(-c3cc(OC)c(OC)c(OC)c3)o2)cc1OC
cell number change: -1.05% | AC50 [2]: 1.46 µM [rising, partial curve, poor fit] | AC50 [1]: 1.3 µM [rising, partial curve, poor fit]

COc1ccc(NC(=O)CN(C)C(=O)c2cc(-c3ccncc3)nc3ccccc23)cc1
cell number change: 4.17%

O=C(CCN1CCN(Cc2ccccc2)CC1)NNC(=O)Nc1cccc(C(F)(F)F)c1
AC50 [2]: 0.00517 µM [falling, full curve, poor fit] | AC50 [1]: 2.91 µM [falling, single point]

OC(COc1ccc(Cl)cc1)CN1CCC(Cc2ccccc2)CC1 (stereo not drawn)
cell number change: 10.6% | AC50 [2]: 0.0259 µM [rising, full curve, poor fit]

Cc1ccc(NC(=O)COC(=O)C2CCC2)cc1S(=O)(=O)N1CCCCC1
cell number change: 0.566% | AC50 [1]: 0.92 µM [rising, full curve, poor fit]

Cc1nc(-c2ccc(F)cc2)c(CC(=O)Nc2ccc(C)c(S(=O)(=O)N3CCOCC3)c2)s1
cell number change: -16.7% | AC50 [1]: 16.4 µM [falling, single point]

Cc1nc2nc(C)c(NS(=O)(=O)c3ccc(Cl)s3)c(=O)n2[nH]1
cell number change: 12.7% | AC50 [1]: 0.58 µM [rising, single point]

Cc1ccc2c(c1)C1CN(C)CCC1N2C(=O)c1ccc(Cl)c(S(=O)(=O)N2CCOCC2)c1 (stereo not drawn)
cell number change: 20.6% | AC50 [1]: 2.06 µM [falling, partial curve]

C=CCn1c(-c2ccccc2)cc(SC)c(C#N)c1=O
AC50 [1]: 6.51 µM [rising, single point]

Cn1cc(C(=O)CCl)c2ccccc21
cell number change: -58.8% | AC50 [2]: 20.6 µM [falling, single point] | AC50 [1]: 29.1 µM [falling, single point]

Cc1ccnc(NS(=O)(=O)c2ccc(NC(=O)C34CC5CC(C)(CC(C)(C5)C3)C4)cc2)n1
cell number change: -5.94% | AC50 [1]: 0.651 µM [falling, full curve]

Clc1cccc(CSc2nccn2-c2ccccc2)c1
cell number change: -23.7% | AC50 [1]: 25.9 µM [falling, single point]

CCN1CCN(S(=O)(=O)c2ccc(Cl)c(C(=O)NC3CC3)c2)CC1
cell number change: -3.21% | AC50 [1]: 6.51 µM [falling, full curve, poor fit]

Cc1cc(NCCO)nc(-n2nc(C)cc2C)n1
cell number change: 18.1% | AC50 [1]: 29.1 µM [rising, single point]

S=C(NC1CCCCC1)N1CCOCCOCCN(C(=S)NC2CCCCC2)CCOCCOCC1
cell number change: 1.46% | AC50 [1]: 16.4 µM [falling, single point]

COc1ccccc1NC(=O)CSc1nc2nc(C)cc(C)c2c(=O)[nH]1
cell number change: 3.05% | AC50 [1]: 5.8 µM [rising, partial curve, poor fit]

CCC(C)n1c(SCC(=O)NCCc2ccc(S(N)(=O)=O)cc2)nc2ccsc2c1=O (stereo not drawn)
cell number change: 18% | AC50 [1]: 0.731 µM [falling, full curve, poor fit]

CCCOc1ccc(-c2nc(C#N)c(N3CCC(C(N)=O)CC3)o2)cc1
cell number change: -28.8%
